The supplement of paper PMC10735217
Structures can show the parent of a compound that is named as a salt. The list shows a part of the results. This data set is noisy: repeats of one test often differ as much as different tests do.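 The human kidney-derived cells carry a stably integrated construct of eight TEAD-binding elements driving luciferase, read by luminescence in a drug-repurposing library screen. A compound counts as a hit when its signal is more than five robust Z scores above the plate mean.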

Test system: HEK293A TEAD-LUC reporter
Assay: TEAD-luciferase reporter activity (YAP activation), robust Z score vs plate; higher = stronger YAP/TEAD activation
Details: 24 h

SMILES | TEAD-luciferase reporter activity (compound concentration: 200 nM) | TEAD-luciferase reporter activity (compound concentration: 2 uM) | TEAD-luciferase reporter activity (compound concentration: 10 uM)
CNC(=O)[C@H](C/C=C/c1ccc(N(C)c2ncccn2)cc1)NC(=O)C1CCCCC1 | inactive: 0.788 | inactive: 1.24 | inactive: -0.0572
CC(C)(N)C(=O)N[C@H](COCc1ccc(F)cc1F)C(=O)N1CCC2=NN(CC(F)(F)F)C(=O)[C@]2(Cc2ccccn2)C1 | inactive: -1.13 | inactive: 1.9 | inactive: 4.13
C=C(C)C(=O)NCC(=O)NCCCCCC(=O)NCC(=O)O[C@]1(CC)C(=O)OCc2c1cc1n(c2=O)Cc2cc3ccccc3nc2-1 | inactive: -2.86 | inactive: -2.3 | inactive: -2.09
CC(C)COC(=O)c1ccc(N)cc1 | inactive: 1.44 | inactive: -1.1 | active: 6.44
CC(=O)NC1C(O)OC(CO)C(O)C1O (centres undefined) [N-Acetylmannosamine] | inactive: -1.28 | inactive: -0.533 | inactive: 0.192
CSc1ccc(Sc2ccc(Cl)cc2CN(C)C)cc1 | inactive: -1.23 | inactive: -1.11 | active: 7.47
N=C(N)NC(=O)c1nc(Cl)c(N)nc1N | inactive: 1.73 | inactive: -0.455 | inactive: -0.709
N=C(N)NC(=O)c1nc(Cl)c(N)nc1N [Amiloride hydrochloride] |  | inactive: -1.21 | 
NCCCC[C@H](NC(=O)c1cccnc1)C(=O)N[C@H](CCC(=O)N1[C@H](C(=O)O)C[C@@H]2CCCC[C@@H]21)C(=O)O | inactive: -1.9 | inactive: -0.0375 | inactive: 3.4
C=Cc1ccccc1S(=O)(=O)[O-] [2-vinylbenzenesulfonate] | inactive: 0.741 | inactive: -1.51 | inactive: -1.32
CN(C)CCN1C(=O)CC(c2ccccc2)Sc2ccccc21 (centres undefined) | inactive: -0.586 | inactive: -1.21 | inactive: 1.51
CC(=O)N(CCC(CCN1CCCCC1)(C(N)=O)c1ccccc1Cl)C(C)C (centres undefined) | inactive: 1.29 | inactive: 0.446 | inactive: -0.188
CN(C)CCOC(c1ccc(Cl)cc1)c1ccccn1 (centres undefined) [carbinoxamine, Elan] |  | inactive: 1.67 | 
CN(C)CCOC(c1ccc(Cl)cc1)c1ccccn1 (centres undefined) [Carbinoxamine Maleate3505-38-2] | inactive: -0.987 |  | inactive: -0.915
Cc1ccc(C(=O)NC2CCN(Cc3cccc(-c4ccc(F)c(F)c4)c3)CC2)cc1 | inactive: 2.73 |  | inactive: -0.0944
CC(C)[C@H](NC(=O)CNC(=O)[C@H](CCC(N)=O)NC(=O)[C@H](C)N)C(=O)O | inactive: 0.446 | inactive: 0.456 | inactive: 0.219
[O-][n+]1ccccc1SSc1cccc[n+]1[O-] [bispyrithione] | inactive: -0.305 | inactive: -3.84 | inactive: -3.8
CCOc1cc2ncc(C#N)c(Nc3ccc(OCc4cccc(F)c4)c(Cl)c3)c2cc1NC(=O)/C=C/CN(C)C | inactive: -1.6 | inactive: -0.068 | inactive: -2.26
COC1(/C=C/COCc2ccc3c(ccc(=O)n3C)c2)CCOC(C)C1 (centres undefined) | inactive: 1.42 | inactive: -0.388 | inactive: -1.36

Shown in markdown: part of the list above

| SMILES | TEAD-luciferase reporter activity (compound concentration: 200 nM) | TEAD-luciferase reporter activity (compound concentration: 2 uM) | TEAD-luciferase reporter activity (compound concentration: 10 uM) |
| --- | --- | --- | --- |
| CC(=O)NC1C(O)OC(CO)C(O)C1O (centres undefined) [N-Acetylmannosamine] | inactive: -1.28 | inactive: -0.533 | inactive: 0.192 |
| CSc1ccc(Sc2ccc(Cl)cc2CN(C)C)cc1 | inactive: -1.23 | inactive: -1.11 | active: 7.47 |

The list continues:

SMILES | TEAD-luciferase reporter activity (compound concentration: 200 nM) | TEAD-luciferase reporter activity (compound concentration: 2 uM) | TEAD-luciferase reporter activity (compound concentration: 10 uM)
C=C1C[C@H]2[C@@H]3CCC4=CC(=O)CC[C@@H]4[C@H]3CC[C@]2(C)[C@@]1(OC(C)=O)C(C)=O [Elcometrine] | inactive: -1.69 | inactive: 0.503 | active: 11.4
CC[C@H]1[C@@H](O)[C@@H]2[C@H](CC[C@]3(C)[C@@H]([C@H](C)CCOS(=O)(=O)[O-])CC[C@@H]23)[C@@]2(C)CC[C@@H](O)C[C@@H]12 | inactive: -1.54 | inactive: -0.787 | inactive: 4.33
Cc1noc(/C(=C/c2ccccc2-c2cc(C(C)(C)S(C)(=O)=O)cc3cccnc23)c2ccc(S(C)(=O)=O)cc2)n1 | inactive: -1.31 | inactive: 0.296 | inactive: 2.61
CCN1CCC(CN2c3ccccc3Sc3ccccc32)C1 (centres undefined) | inactive: 1.81 | inactive: 2.52 | active: 7.15
Oc1ccc2ccccc2c1 | inactive: 0.095 | inactive: -0.0599 | inactive: 0.412
COc1ccc(OCCCN(C)CCOc2ccc3c(c2)OCO3)c(C2Sc3ccccc3N(C)C2=O)c1 (centres undefined) | inactive: -2 | inactive: 2.31 | inactive: -0.0212
[O-][n+]1cccc(C(Cl)=NOCC(O)CN2CCCCC2)c1 (centres undefined) | inactive: -0.373 | inactive: 0.224 | inactive: 1.02
C[C@H](CCC(=O)NCCS(=O)(=O)O)[C@H]1CC[C@H]2[C@@H]3C[C@H](O)[C@@H]4C[C@H](O)CCC4(C)[C@H]3CCC12C (some centres undefined) [Taurohyodeoxycholic Acid] | inactive: -0.207 | inactive: -0.48 | inactive: 0.265
OC[C@H]1O[C@@H](n2cnc3c2NC=NC[C@H]3O)C[C@@H]1O [pentostatin] | inactive: -0.108 | inactive: -0.298 | inactive: -1.11
OC[C@H]1O[C@@H](n2cnc3c2NC=NC[C@H]3O)C[C@@H]1O [pentostatin, Yamasa] |  | inactive: 0.16 | 
COc1cccc([C@H]2O[C@H](CC(=O)N3CCC(CC(=O)O)CC3)C(=O)N(CC(C)(C)CO)c3ccc(Cl)cc32)c1OC | inactive: 3.07 |  | inactive: 0.0148
CCCN1CCN(c2ccc(C(=O)NC3(C(=O)NCC#N)CCCCC3)cc2)CC1 | inactive: -1.5 |  | inactive: -0.935
CCCN1CCN(c2ccc(C(=O)NC3(C(=O)NCC#N)CCCCC3)cc2)CC1 [Balicatib] |  | inactive: -1.08 | 
Cc1cc(C=O)c(C)n1-c1ccc(OCC(=O)O)cc1 | inactive: 2.51 | inactive: 0.644 | inactive: 2.58
Cc1ccc(C(=O)N2CCC(N3CCCC3=O)CC2)cc1 | inactive: -0.607 |  | inactive: 1.14
CC[C@@H]1C[C@H](N(Cc2cc(C(F)(F)F)cc(C(F)(F)F)c2)C(C)=O)c2cc(C(F)(F)F)ccc2N1C(=O)OC(C)C | inactive: -0.965 | inactive: -1.3 | inactive: 3.5
O=c1[nH]nc2n1-c1ccccc1SC2 | inactive: -0.562 | inactive: -0.965 | inactive: -1.03
O[C@](Cn1cncn1)(Cn1cnc(/C=C/c2ccc(OCC(F)(F)C(F)F)cc2)n1)c1ccc(F)cc1F | inactive: 0.771 |  | inactive: 0.643
CC(C)n1nc(C(=O)NCCN2CCC(NC(=O)C34CC5CC(CC(C5)C3)C4)CC2)c2ccccc21 | inactive: -0.993 | inactive: 0.00923 | inactive: 1.19

SMILES | TEAD-luciferase reporter activity (compound concentration: 200 nM) | TEAD-luciferase reporter activity (compound concentration: 2 uM) | TEAD-luciferase reporter activity (compound concentration: 10 uM)
COc1ccc(Cc2sccc2O[C@@H]2O[C@H](CO)[C@@H](O)[C@H](O)[C@H]2O)cc1 [Atigliflozin] | inactive: -0.497 | inactive: -0.51 | inactive: 2.23
O=S(=O)(c1nc(-c2ccccc2)c(-c2ccc(Cl)c(Cl)c2)[nH]1)C(F)(F)C(F)F | inactive: -0.87 | inactive: -0.352 | inactive: -0.06
CCOC(=O)Cc1cc(Cl)c(Oc2ccc(C(=O)NC(C)(C)C)cc2NS(=O)(=O)c2ccc(C3CC3)cc2Cl)cc1F | inactive: -0.611 | inactive: -0.733 | inactive: 2.57
CCN(CC)CCO[C@H]1CC[C@@]2(C)C(=CC[C@@H]3[C@@H]2CC[C@]2(C)OCC[C@@H]32)C1 | inactive: -1.04 | inactive: -0.704 | inactive: -1.41
CC[C@@]1(CO)CCCN2CCc3c([nH]c4ccccc34)[C@@H]21 [Vintoperol] | inactive: -0.533 | inactive: 2.17 | inactive: -0.163
Cc1cc2ncc(C(=O)NC3CC3)cn2n1 | inactive: -0.748 |  | inactive: 1
CC(C)(S)[C@@H](N)C(=O)O [D-penicillamine] |  | inactive: -0.571 | 
COc1ccccc1Oc1c(NS(=O)(=O)/C=C/c2ccccc2)nc(-c2ncccn2)nc1OC [Nebentan potassium] | inactive: 0.687 | inactive: 0.0955 | inactive: -1.09
Cc1ccc2c(c1)c1c(n2CCc2ccc(C)nc2)CCN(C)C1 [Dimebon] |  | inactive: -0.692 | 
Cc1ccc2c(c1)c1c(n2CCc2ccc(C)nc2)CCN(C)C1 | inactive: -0.562 |  | active: 5.11
NC(CO)C(=O)NNCc1ccc(O)c(O)c1O (centres undefined) [Benserazide HCl] | inactive: -0.675 | inactive: 4.54 | inactive: -0.962
Cc1ccccc1C(=O)N1CCC(n2c(=O)[nH]c3ccccc32)CC1 | inactive: -0.997 |  | inactive: -1.45
O=S(=O)(c1nc(-c2ccc(F)cc2)c(-c2ccc(F)cc2)[nH]1)C(F)(F)C(F)F [tiflamizole] | inactive: 0.447 | inactive: 0.16 | inactive: 4.95
CC(C)(C)NCc1cc(C(C)(C)C)cc(-c2ccc(Cl)cc2)c1O | inactive: -0.231 | inactive: -1.36 | active: 6.72
CCOC(=O)Cc1cc(Cl)c(Oc2ccc(C(=O)NC(C)(C)C)cc2NS(=O)(=O)c2ccc(C#N)cc2)cc1F | inactive: -0.904 | inactive: -0.3 | inactive: 1.25
C/C(=N\NC(=O)c1ccc(C(=O)O)s1)c1csc(-c2ccc(Cl)c(Cl)c2)c1O | inactive: -0.848 | inactive: 0.238 | inactive: 1.97
CO/N=C(/N)c1ccc(-c2ccc(-c3ccc(/C(N)=N\OC)cc3)o2)cc1 [pafuramidine] | inactive: 1.89 |  | inactive: 3.84
CO/N=C(/N)c1ccc(-c2ccc(-c3ccc(/C(N)=N\OC)cc3)o2)cc1 |  | inactive: 1.49 | 
